The supplement of paper PMC10849652
The other results are listed elsewhere or left out.

Amino acid sequences for entries named in this document (tags omitted). A change or cut given only in a name is not applied to a line headed by its entry.
UniProt Q12767: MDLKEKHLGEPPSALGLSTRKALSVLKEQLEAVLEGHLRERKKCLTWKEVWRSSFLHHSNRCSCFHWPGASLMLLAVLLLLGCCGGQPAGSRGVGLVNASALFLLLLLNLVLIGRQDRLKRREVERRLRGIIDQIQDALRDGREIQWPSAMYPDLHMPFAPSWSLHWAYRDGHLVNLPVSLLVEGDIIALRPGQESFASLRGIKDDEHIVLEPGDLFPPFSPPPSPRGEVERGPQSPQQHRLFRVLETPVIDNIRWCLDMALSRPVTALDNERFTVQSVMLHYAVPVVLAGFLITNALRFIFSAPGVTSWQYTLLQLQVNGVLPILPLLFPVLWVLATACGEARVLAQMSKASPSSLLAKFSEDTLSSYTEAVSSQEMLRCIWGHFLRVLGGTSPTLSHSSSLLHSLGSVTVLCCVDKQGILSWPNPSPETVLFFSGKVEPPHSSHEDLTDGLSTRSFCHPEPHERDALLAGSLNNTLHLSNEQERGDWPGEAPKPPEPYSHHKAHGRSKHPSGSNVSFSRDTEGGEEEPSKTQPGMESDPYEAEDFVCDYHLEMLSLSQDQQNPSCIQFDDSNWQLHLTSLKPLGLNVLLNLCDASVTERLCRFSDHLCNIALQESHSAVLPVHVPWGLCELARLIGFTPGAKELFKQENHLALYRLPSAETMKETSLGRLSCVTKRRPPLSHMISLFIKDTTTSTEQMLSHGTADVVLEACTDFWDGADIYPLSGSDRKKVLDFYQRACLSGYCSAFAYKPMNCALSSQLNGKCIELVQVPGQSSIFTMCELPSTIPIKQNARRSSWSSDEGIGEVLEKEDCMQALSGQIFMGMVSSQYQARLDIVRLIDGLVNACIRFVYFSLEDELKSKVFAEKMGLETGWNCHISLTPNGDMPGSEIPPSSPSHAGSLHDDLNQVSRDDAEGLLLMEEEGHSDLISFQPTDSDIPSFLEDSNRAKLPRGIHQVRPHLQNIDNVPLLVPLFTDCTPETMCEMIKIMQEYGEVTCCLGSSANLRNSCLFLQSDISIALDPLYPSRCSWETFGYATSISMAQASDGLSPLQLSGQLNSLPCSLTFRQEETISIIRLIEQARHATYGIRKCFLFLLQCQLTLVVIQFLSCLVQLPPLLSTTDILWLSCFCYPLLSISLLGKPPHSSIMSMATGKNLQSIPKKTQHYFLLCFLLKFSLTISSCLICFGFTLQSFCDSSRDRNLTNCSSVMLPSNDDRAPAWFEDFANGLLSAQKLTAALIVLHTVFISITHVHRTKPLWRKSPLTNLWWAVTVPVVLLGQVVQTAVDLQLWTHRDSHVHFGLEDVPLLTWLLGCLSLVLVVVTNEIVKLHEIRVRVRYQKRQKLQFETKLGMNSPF
UniProt Q6PL24: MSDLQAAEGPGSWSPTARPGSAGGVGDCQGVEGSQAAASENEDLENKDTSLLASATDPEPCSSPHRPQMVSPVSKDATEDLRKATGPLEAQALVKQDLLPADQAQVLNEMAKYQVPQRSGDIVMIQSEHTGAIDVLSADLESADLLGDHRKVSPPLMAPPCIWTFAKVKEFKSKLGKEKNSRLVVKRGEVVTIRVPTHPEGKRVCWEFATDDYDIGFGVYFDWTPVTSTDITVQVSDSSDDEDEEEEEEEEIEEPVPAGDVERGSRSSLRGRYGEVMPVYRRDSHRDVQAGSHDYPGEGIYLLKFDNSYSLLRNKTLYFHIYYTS
UniProt Q9Y519: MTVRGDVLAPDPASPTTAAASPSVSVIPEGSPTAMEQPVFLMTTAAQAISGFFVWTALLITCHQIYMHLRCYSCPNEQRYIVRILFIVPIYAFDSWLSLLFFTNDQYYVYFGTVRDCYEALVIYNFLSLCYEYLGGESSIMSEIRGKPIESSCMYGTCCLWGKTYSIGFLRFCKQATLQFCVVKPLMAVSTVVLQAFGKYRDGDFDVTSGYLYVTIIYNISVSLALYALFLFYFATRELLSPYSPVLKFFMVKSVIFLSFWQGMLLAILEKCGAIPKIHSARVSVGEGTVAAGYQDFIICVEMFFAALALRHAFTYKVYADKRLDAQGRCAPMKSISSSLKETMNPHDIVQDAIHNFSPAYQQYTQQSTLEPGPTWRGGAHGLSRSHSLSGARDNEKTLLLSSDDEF
UniProt Q5BJD5: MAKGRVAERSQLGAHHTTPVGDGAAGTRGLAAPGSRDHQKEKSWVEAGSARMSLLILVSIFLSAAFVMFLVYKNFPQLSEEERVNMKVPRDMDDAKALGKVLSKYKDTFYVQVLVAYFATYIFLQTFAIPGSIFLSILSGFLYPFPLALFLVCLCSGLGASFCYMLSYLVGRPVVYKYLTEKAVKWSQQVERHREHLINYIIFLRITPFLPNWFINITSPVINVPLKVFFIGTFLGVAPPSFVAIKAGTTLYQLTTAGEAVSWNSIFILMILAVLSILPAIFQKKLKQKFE
UniProt Q9Y2Y6: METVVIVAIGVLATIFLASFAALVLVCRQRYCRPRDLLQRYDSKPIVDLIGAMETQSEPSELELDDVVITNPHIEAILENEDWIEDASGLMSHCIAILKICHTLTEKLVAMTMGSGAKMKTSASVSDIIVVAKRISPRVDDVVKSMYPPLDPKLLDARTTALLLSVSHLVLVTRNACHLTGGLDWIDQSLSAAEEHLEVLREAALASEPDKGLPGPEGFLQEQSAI
UniProt Q9BRR3: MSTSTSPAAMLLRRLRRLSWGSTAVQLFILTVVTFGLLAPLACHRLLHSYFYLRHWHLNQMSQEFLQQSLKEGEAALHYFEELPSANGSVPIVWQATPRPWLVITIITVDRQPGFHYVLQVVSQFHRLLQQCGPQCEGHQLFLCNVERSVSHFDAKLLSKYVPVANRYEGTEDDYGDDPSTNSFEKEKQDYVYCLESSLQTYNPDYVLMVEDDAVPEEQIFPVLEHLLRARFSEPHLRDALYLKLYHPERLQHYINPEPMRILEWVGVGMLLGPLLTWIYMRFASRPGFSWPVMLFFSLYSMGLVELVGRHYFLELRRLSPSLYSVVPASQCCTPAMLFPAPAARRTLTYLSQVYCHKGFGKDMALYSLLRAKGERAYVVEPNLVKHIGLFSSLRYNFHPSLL
UniProt Q9BXS4: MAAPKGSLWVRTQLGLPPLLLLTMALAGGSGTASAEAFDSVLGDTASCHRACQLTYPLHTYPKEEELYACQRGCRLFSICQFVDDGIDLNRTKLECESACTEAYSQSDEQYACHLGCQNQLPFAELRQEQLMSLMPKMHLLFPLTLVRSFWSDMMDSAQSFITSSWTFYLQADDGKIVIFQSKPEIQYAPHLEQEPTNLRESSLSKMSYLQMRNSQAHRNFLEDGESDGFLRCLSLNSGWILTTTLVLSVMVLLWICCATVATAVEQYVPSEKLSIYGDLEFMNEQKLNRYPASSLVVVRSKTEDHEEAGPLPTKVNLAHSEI
UniProt P62328: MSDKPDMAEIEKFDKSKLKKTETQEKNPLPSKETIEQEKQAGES
UniProt P21580: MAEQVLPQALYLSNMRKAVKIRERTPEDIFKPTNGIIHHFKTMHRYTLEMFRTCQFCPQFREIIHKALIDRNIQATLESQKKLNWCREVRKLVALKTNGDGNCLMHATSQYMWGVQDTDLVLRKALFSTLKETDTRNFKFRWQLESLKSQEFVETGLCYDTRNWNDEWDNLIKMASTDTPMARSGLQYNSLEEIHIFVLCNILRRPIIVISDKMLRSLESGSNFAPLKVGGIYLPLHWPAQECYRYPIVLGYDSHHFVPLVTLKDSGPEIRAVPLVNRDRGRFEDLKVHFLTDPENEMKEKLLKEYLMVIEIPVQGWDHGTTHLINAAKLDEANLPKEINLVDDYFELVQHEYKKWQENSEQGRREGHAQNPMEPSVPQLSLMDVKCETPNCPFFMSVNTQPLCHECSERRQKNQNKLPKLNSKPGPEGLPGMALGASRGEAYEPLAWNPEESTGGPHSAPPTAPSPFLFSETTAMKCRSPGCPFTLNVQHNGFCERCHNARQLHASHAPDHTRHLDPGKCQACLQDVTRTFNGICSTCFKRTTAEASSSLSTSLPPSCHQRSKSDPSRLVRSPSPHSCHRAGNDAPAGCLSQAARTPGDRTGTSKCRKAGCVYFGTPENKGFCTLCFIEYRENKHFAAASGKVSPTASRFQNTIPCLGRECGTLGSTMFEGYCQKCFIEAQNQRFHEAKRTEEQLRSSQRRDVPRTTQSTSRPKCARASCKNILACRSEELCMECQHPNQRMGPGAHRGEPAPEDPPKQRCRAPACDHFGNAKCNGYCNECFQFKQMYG
UniProt Q96Q45: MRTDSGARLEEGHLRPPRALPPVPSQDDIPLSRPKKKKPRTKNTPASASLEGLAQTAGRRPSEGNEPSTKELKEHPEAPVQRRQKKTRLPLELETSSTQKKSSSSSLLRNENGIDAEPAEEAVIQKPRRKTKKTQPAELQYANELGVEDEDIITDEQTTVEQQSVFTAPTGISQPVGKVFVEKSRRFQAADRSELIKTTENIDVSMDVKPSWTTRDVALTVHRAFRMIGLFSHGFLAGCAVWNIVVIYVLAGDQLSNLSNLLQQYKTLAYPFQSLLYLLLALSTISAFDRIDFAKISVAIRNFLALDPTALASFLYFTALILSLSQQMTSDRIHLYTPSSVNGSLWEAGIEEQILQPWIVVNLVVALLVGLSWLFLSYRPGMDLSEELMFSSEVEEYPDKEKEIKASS
UniProt Q9NQ34: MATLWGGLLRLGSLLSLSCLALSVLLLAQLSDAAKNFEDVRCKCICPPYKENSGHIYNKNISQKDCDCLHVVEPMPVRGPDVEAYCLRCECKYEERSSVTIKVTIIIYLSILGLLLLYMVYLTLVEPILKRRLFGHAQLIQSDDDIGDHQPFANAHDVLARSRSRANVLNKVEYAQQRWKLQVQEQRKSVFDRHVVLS
UniProt Q9ULS5: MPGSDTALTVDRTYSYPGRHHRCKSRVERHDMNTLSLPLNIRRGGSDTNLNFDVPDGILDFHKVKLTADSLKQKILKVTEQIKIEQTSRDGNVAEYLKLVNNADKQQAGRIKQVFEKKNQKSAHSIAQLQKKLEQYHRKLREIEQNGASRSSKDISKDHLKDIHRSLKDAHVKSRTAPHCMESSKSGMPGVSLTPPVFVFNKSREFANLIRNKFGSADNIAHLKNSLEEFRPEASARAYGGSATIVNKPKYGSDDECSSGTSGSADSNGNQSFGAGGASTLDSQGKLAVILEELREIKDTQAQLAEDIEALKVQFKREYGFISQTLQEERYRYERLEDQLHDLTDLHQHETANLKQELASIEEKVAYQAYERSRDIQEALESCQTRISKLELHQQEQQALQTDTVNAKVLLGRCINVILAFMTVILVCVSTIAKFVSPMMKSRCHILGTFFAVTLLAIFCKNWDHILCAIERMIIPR
UniProt Q5T292: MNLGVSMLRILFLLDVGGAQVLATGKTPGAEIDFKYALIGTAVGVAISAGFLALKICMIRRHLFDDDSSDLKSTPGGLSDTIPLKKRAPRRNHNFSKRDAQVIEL
UniProt O75069: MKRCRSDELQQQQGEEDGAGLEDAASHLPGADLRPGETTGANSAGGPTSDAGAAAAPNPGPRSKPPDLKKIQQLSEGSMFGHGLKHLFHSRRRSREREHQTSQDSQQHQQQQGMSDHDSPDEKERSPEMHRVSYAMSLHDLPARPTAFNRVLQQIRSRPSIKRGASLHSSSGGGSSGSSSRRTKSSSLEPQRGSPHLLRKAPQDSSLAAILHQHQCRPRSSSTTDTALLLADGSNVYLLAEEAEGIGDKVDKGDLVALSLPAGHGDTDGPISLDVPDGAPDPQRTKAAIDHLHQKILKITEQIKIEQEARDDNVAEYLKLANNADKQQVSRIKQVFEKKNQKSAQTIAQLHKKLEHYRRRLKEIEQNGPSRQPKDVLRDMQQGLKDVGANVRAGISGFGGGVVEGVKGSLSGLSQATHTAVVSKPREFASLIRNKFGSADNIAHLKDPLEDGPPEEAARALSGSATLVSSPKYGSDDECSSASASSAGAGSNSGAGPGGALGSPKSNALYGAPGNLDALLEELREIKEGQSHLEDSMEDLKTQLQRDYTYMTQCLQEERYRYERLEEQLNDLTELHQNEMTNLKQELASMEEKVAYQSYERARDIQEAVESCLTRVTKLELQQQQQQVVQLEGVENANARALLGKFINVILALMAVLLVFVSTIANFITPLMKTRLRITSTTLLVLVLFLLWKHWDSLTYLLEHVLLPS
UniProt Q9H6X4: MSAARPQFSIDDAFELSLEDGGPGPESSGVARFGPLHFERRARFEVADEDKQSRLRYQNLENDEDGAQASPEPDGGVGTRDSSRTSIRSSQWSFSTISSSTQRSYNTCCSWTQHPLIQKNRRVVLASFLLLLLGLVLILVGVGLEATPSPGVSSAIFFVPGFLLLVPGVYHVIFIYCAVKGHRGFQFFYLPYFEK

How the values were obtained:
Assay in all cases: log2 fold change, soluble protein after heating vs DMSO (PISA); higher = thermal stabilisation; K562 cells, 10 uM, 30 min; active = over 0.2 and 3.5 SD of the protein, either way, in both replicates (recomputed)
[1] = compound: CNC(=O)C1=CC=CC=C1NC2=NC(=NC=C2Cl)NC3=C(C=C(C=C3)N4CCOCC4)OC
Summary of the method: (§1)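 Quantification of soluble protein used TMTpro 16plex LC-MS/MS, with channel sums equalised. Samples were the supernatant after 21,000xg for 90 min of pooled aliquots from K562 cells (2×10^6 cells/mL) treated with 10 μM compound for 30 min, heated for 3 min over 48°C-58°C, and extracted in PBS with 0.5% NP-40 at 4°C. Values, from duplicates, describe thermal stability against control samples on a log2 fold-change scale.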

[2] = compound: COc1cc(Nc2ncc3c(n2)-c2ccc(Cl)cc2C(c2c(F)cccc2OC)=NC3)ccc1C(=O)O [alisertib]
Summary of the method: as §1

[3] = compound: COc1cccc2cc(-c3nc([C@H]4CC[C@H](C(=O)O)CC4)n4ncnc(N)c34)[nH]c12
Summary of the method: as §1

[4] = compound: CS(=O)(=O)N1CCN(Cc2cc3nc(-c4cccc5[nH]ncc45)nc(N4CCOCC4)c3s2)CC1 [pictilisib]
Summary of the method: as §1

[5] = compound: CN1CCN(CCOc2cc(OC3CCOCC3)c3c(Nc4c(Cl)ccc5c4OCO5)ncnc3c2)CC1 [saracatinib]
Summary of the method: as §1

[6] = compound: CNc1nc(-c2ccc3c(N)n[nH]c3c2)cc(N2C[C@@H](C(=O)NC3CCCCC3)CC[C@H]2C)n1
Summary of the method: as §1

[7] = compound: COc1cc(C(=O)O)ccc1NC(=O)[C@@H]1N[C@@H](CC(C)(C)C)[C@](C#N)(c2ccc(Cl)cc2F)[C@H]1c1cccc(Cl)c1F [idasanutlin]
Summary of the method: as §1

[8] = compound: CN1CC[C@H](c2c(O)cc(O)c3c(=O)cc(-c4ccccc4Cl)oc23)[C@H](O)C1 [alvocidib]
Summary of the method: as §1

[9] = compound: CN1CCc2c(c3ccccc3n2Cc2ccc(C(=O)NO)cc2)C1 [Tubastatin A]
Summary of the method: as §1

[10] = compound: CNC(=O)c1ccc(Nc2ncc(C(F)(F)F)c(NCc3nccnc3N(C)S(C)(=O)=O)n2)cc1 [defactinib]
Summary of the method: as §1

[11] = compound: CNCc1ccc(-c2[nH]c3cc(F)cc4c3c2CCNC4=O)cc1 [rucaparib]
Summary of the method: as §1

[12] = compound: COC(=O)N[C@@H](C)CNc1nccc(-c2cn(C(C)C)nc2-c2cc(Cl)cc(NS(C)(=O)=O)c2F)n1 [encorafenib]
Summary of the method: as §1

[13] = compound: COC(=O)[C@H](CCSC)NC(=O)C1=C(C=C(C=C1)NC[C@H](CS)N)C2=CC=CC=C2
Summary of the method: as §1

[14] = compound: COC1=CC=C(C=C1)CN2C=CC3=C2C=C(C=C3)C(=O)NO
Summary of the method: as §1

[15] = compound: CO[C@H]1C[C@@H]2CC[C@@H](C)[C@@](O)(O2)C(=O)C(=O)N2CCCC[C@H]2C(=O)O[C@H]([C@H](C)C[C@@H]2CC[C@H](n3cnnn3)[C@H](OC)C2)CC(=O)[C@H](C)/C=C(\C)[C@@H](O)[C@@H](OC)C(=O)[C@H](C)C[C@H](C)/C=C/C=C/C=C/1C [zotarolimus]
Summary of the method: as §1

[16] = compound: COc1cc2nc(-c3cc(F)ccc3O)nc(N[C@@H]3CNC[C@H]3C(C)(C)O)c2cc1OC
Summary of the method: as §1

[17] = compound: COc1cc2ncnc(Nc3ccc(F)c(Cl)c3)c2cc1OCCCN1CCOCC1 [gefitinib]
Summary of the method: as §1

[18] = compound: CS(=O)(=O)CCNCc1ccc(-c2ccc3ncnc(Nc4ccc(OCc5cccc(F)c5)c(Cl)c4)c3c2)o1 [lapatinib]
Summary of the method: as §1

[19] = compound: CN1CCN(c2nc(C3=C(c4c[nH]c5ccccc45)C(=O)NC3=O)c3ccccc3n2)CC1 [sotrastaurin]
Summary of the method: as §1

[20] = compound: CON(C)C(=O)N1N=C(c2cc(F)ccc2F)S[C@@]1(CCCN)c1ccccc1 [filanesib]
Summary of the method: as §1

Measured: log2 fold change

TMPO (UniProt G5E972)
inactive: [1] -0.048 | [2] 0.05 | [3] -0.144 | [4] 0.338

TMEM94 isoform 2 (UniProt Q12767)
inactive: [5] -0.01 | [1] -0.046 | [6] 0.057 | [7] 0.056

TMCO6 isoform 2 (UniProt Q96DC7)
inactive: [5] -0.055 | [1] -0.107 | [6] -0.273 | [4] -0.082

Reprinted from the listing (2 entries):
TMPO (UniProt G5E972)
inactive: [1] -0.048 | [2] 0.05 | [3] -0.144 | [4] 0.338

TMEM94 isoform 2 (UniProt Q12767)
inactive: [5] -0.01 | [1] -0.046 | [6] 0.057 | [7] 0.056

Next part:

TMED8 (UniProt Q6PL24)
inactive: [5] -0.018 | [8] -0.091 | [9] 0.047 | [1] 0.119 | [10] -0.043 | [11] 0.075 | [6] 0.088 | [12] 0.087 | [13] -0.049 | [14] 0.266 | [15] -0.088 | [7] -0.027 | [2] 0.148 | [16] 0.038 | [17] -0.226 | [3] -0.25 | [18] 0.024 | [4] -0.002

TMEM184B (UniProt Q9Y519)
inactive: [19] -0.031 | [9] 0.178 | [1] 0.051 | [20] -0.022 | [2] 0 | [16] 0.058 | [17] -0.034 | [3] -0.004 | [18] 0.099

TMEM41B (UniProt Q5BJD5)
inactive: [5] 0.051 | [8] 0.051 | [9] -0.085 | [1] 0.138 | [10] 0 | [11] -0.074 | [6] -0.011 | [12] 0.071 | [13] 0.022 | [14] 0.009 | [15] 0 | [7] 0.108 | [2] -0.035 | [16] -0.282 | [17] 0.058 | [3] 0.09 | [18] 0.058 | [4] -0.014

TMEM98 (UniProt Q9Y2Y6)
inactive: [2] -0.448 | [16] 0.003 | [17] 0.126 | [3] 0.157 | [18] 0.107

TMEM79 (UniProt Q9BSE2)
inactive: [9] -0.122 | [7] 0.127 | [17] 0.075

TMEM246 (UniProt Q9BRR3)
inactive: [1] 0.108

TMEM59 (UniProt Q9BXS4)
inactive: [5] -0.469 | [8] 0.155 | [9] 0.183 | [1] 0.175 | [6] -0.227 | [14] 0.437 | [15] 0.051 | [7] -0.023 | [2] -0.153 | [16] 0.068 | [17] -0.104 | [3] -0.161 | [18] 0.051 | [4] 0.14

TMSB4X (UniProt P62328)
inactive: [5] 0.18 | [8] -0.076 | [10] 0.024 | [11] 0.322 | [6] 0 | [12] -0.16 | [13] 0.212 | [14] -1.26 | [15] -0.167 | [7] 0.389 | [2] -0.54 | [16] 0.032 | [17] 0.191 | [3] 0.728 | [18] -0.432

TMEM143 (UniProt Q96AN5)
inactive: [19] 0.107 | [9] 0.067 | [1] -0.021 | [11] 0.011 | [12] 0.114 | [14] 0.153 | [20] -0.094 | [7] -0.071 | [2] -0.239 | [3] -0.041

TNFAIP3 (UniProt P21580)
inactive: [8] -0.027 | [1] -0.154 | [10] -0.066 | [13] 0.009 | [14] -0.071 | [15] 0.058 | [7] -0.014 | [2] -0.055 | [16] 0.111 | [17] 0.016 | [3] -0.057 | [18] 0.053 | [4] -0.07

TMEM237 isoform 3 (UniProt Q96Q45)
inactive: [19] -0.085 | [9] 0.056 | [1] -0.03 | [10] 0.08 | [11] 0.173 | [12] 0.026 | [13] -0.217 | [20] 0.482 | [2] -0.31 | [3] -0.334 | [4] -0.333

TMEM9B (UniProt Q9NQ34)
inactive: [19] 0.019 | [9] -0.033 | [1] -0.029 | [10] -0.029 | [11] -0.02 | [12] 0.063 | [13] -0.001 | [14] 0.001 | [20] -0.039 | [15] 0.014 | [7] 0.036 | [2] -0.032 | [16] 0.011 | [17] -0.047 | [3] -0.068 | [18] -0.118 | [4] 0.07

TMCC3 (UniProt Q9ULS5)
inactive: [19] 0.073 | [11] -0.189 | [12] 0.139 | [20] -0.032 | [2] -0.282 | [17] 0.033 | [3] 0.169

TMEM273 isoform 2 (UniProt Q5T292)
inactive: [9] 0.216 | [10] -0.025 | [13] -0.099 | [7] 0.06 | [17] 0.018

TMCC2 (UniProt O75069)
inactive: [5] 0.004 | [8] -0.065 | [6] -0.15 | [15] -0.098 | [7] 0.025 | [17] 0.129

TMEM134 (UniProt Q9H6X4)
inactive: [1] -0.021 | [14] -0.163 | [7] 0.044 | [2] -0.038 | [3] 0.068 | [4] -0.06
